Test results reported in patent publication US10858384B2, “Synthetic molecule constructs” (KODE BIOTECH LIMITED, priority 2004, dated 2020).
At least one structure is not confirmed: it was looked up by name or label, or the drawing left a doubt.

Legend:
RBCs = test: Column agglutination of RBCs transformed with sterile-filtered vs unfiltered synthetic glycolipid; format: cell-based; conditions: anti-A BioClone
Text: Some Atri-sp-Ad-DOPE (I) had been sterile-filtered through a 0.2 μm filter. To investigate whether transformation would be the same with this product a comparative trial was done.

[1] = tested on: group O red blood cells (RBCs); test: Diamed gel-card agglutination of group O RBCs transformed at 37° C. with synthetic glycolipids; format: cell-based, human; design: Albaclone anti-A, Diamed / Bioclone anti-A, Diamed / Agglutination, Diamed gel-cards, Albaclone anti-A / Agglutination, Diamed gel-cards, Bioclone anti-A / Agglutination, Diamed gel-cards, Albaclone anti-B: scale not given here
Description: Washed packed group O red blood cells (RBCs) (3 parts by volume) and the synthetic glycolipid solution (1 part by volume, varying concentrations) were added to an eppendorf tube. The tube was incubated in a 37° C. waterbath for one hour, mixing every 15 minutes. […]
Tube serology and Diamed gel-card results for RBCs transformed with the different synthetic molecule constructs are provided in Table 38. Results for the stability of the RBCs transformed with the different synthetic glycolipids at different concentrations are provided in Tables 39 to 44.

CCCCCCCC/C=C\CCCCCCCC(=O)OC[C@H](COP(=O)(O)OCCNC(=O)CCCCC(=O)NCCCO[C@@H]1O[C@H](CO)[C@H](O)[C@H](O[C@H]2O[C@H](CO)[C@H](O)[C@H](O)[C@H]2NC(C)=O)[C@H]1O[C@@H]1O[C@@H](C)[C@@H](O)[C@@H](O)[C@@H]1O)OC(=O)CCCCCCC/C=C\CCCCCCCC [Atri-sp-Ad-DOPE (I)]
3+/2+: Agglutination, Diamed gel-cards, Bioclone anti-A ([1]; 0.05 mg/mL, Day 15, Alsevers) | Agglutination, Diamed gel-cards, Albaclone anti-A ([1]; 0.05 mg/mL, Day 22, Alsevers) | Agglutination, Diamed gel-cards, Albaclone anti-A ([1]; 0.05 mg/mL, Day 57, Alsevers)
1+: Agglutination, Diamed gel-cards, Bioclone anti-A ([1]; 0.025 mg/mL, Day 2, Alsevers) | Agglutination, Diamed gel-cards, Bioclone anti-A ([1]; 0.025 mg/mL, Day 2, Cellstab) | Agglutination, Diamed gel-cards, Bioclone anti-A ([1]; 0.025 mg/mL, Day 8, Alsevers) | Agglutination, Diamed gel-cards, Bioclone anti-A ([1]; 0.025 mg/mL, Day 8, Cellstab) | Agglutination, Diamed gel-cards, Bioclone anti-A ([1]; 0.025 mg/mL, Day 15, Alsevers) | Agglutination, Diamed gel-cards, Bioclone anti-A ([1]; 0.025 mg/mL, Day 15, Cellstab) | Agglutination, Diamed gel-cards, Bioclone anti-A ([1]; 0.025 mg/mL, Day 22, Cellstab) | Agglutination, Diamed gel-cards, Bioclone anti-A ([1]; 0.025 mg/mL, Day 43, Cellstab) | Agglutination, Diamed gel-cards, Bioclone anti-A ([1]; 0.025 mg/mL, Day 50, Cellstab)
3-4+: Column agglutination (RBCs; unfiltered, 0.1 mg/mL)
2+: Agglutination, Diamed gel-cards, Bioclone anti-A ([1]; 0.025 mg/mL, Day 29, Cellstab) | Agglutination, Diamed gel-cards, Bioclone anti-A ([1]; 0.025 mg/mL, Day 43, Alsevers) | Agglutination, Diamed gel-cards, Bioclone anti-A ([1]; 0.025 mg/mL, Day 50, Alsevers) | Albaclone anti-A, Diamed ([1]; 0.05 mg/mL) | Bioclone anti-A, Diamed ([1]; 0.05 mg/mL) | Agglutination, Diamed gel-cards, Albaclone anti-A ([1]; 0.05 mg/mL, Day 2, Alsevers) | Agglutination, Diamed gel-cards, Albaclone anti-A ([1]; 0.05 mg/mL, Day 2, Cellstab) | Agglutination, Diamed gel-cards, Albaclone anti-A ([1]; 0.05 mg/mL, Day 15, Alsevers) | Agglutination, Diamed gel-cards, Albaclone anti-A ([1]; 0.05 mg/mL, Day 29, Alsevers) | Agglutination, Diamed gel-cards, Albaclone anti-A ([1]; 0.05 mg/mL, Day 63, Cellstab) | Agglutination, Diamed gel-cards, Albaclone anti-A ([1]; 0.05 mg/mL, Day 71, Cellstab) | Agglutination, Diamed gel-cards, Albaclone anti-A ([1]; 0.05 mg/mL, Day 86, Cellstab)
2-3+: Column agglutination (RBCs; sterile-filtered, 0.05 mg/mL) | Column agglutination (RBCs; unfiltered, 0.05 mg/mL)
4+/3+: Agglutination, Diamed gel-cards, Albaclone anti-A ([1]; 0.05 mg/mL, Day 43, Cellstab) | Albaclone anti-A, Diamed ([1]; 0.1 mg/mL) | Bioclone anti-A, Diamed ([1]; 0.1 mg/mL)
3+: Agglutination, Diamed gel-cards, Bioclone anti-A ([1]; 0.05 mg/mL, Day 2, Alsevers) | Agglutination, Diamed gel-cards, Bioclone anti-A ([1]; 0.05 mg/mL, Day 2, Cellstab) | Agglutination, Diamed gel-cards, Albaclone anti-A ([1]; 0.05 mg/mL, Day 8, Alsevers) | Agglutination, Diamed gel-cards, Albaclone anti-A ([1]; 0.05 mg/mL, Day 8, Cellstab) | Agglutination, Diamed gel-cards, Bioclone anti-A ([1]; 0.05 mg/mL, Day 22, Alsevers) | Agglutination, Diamed gel-cards, Bioclone anti-A ([1]; 0.05 mg/mL, Day 29, Alsevers) | Agglutination, Diamed gel-cards, Albaclone anti-A ([1]; 0.05 mg/mL, Day 29, Cellstab) | Agglutination, Diamed gel-cards, Albaclone anti-A ([1]; 0.05 mg/mL, Day 43, Alsevers) | Agglutination, Diamed gel-cards, Albaclone anti-A ([1]; 0.05 mg/mL, Day 50, Alsevers) | Agglutination, Diamed gel-cards, Albaclone anti-A ([1]; 0.05 mg/mL, Day 50, Cellstab) | Agglutination, Diamed gel-cards, Albaclone anti-A ([1]; 0.05 mg/mL, Day 57, Cellstab) | Agglutination, Diamed gel-cards, Bioclone anti-A ([1]; 0.05 mg/mL, Day 57, Cellstab) | Agglutination, Diamed gel-cards, Bioclone anti-A ([1]; 0.05 mg/mL, Day 63, Cellstab) | Agglutination, Diamed gel-cards, Bioclone anti-A ([1]; 0.05 mg/mL, Day 71, Cellstab) | Agglutination, Diamed gel-cards, Bioclone anti-A ([1]; 0.05 mg/mL, Day 86, Cellstab)
4+: Column agglutination (RBCs; sterile-filtered, 0.1 mg/mL) | Column agglutination (RBCs; sterile-filtered, 0.2 mg/mL) | Column agglutination (RBCs; unfiltered, 0.2 mg/mL) | Agglutination, Diamed gel-cards, Bioclone anti-A ([1]; 0.05 mg/mL, Day 8, Alsevers) | Agglutination, Diamed gel-cards, Bioclone anti-A ([1]; 0.05 mg/mL, Day 8, Cellstab) | Agglutination, Diamed gel-cards, Albaclone anti-A ([1]; 0.05 mg/mL, Day 15, Cellstab) | Agglutination, Diamed gel-cards, Bioclone anti-A ([1]; 0.05 mg/mL, Day 15, Cellstab) | Agglutination, Diamed gel-cards, Albaclone anti-A ([1]; 0.05 mg/mL, Day 22, Cellstab) | Agglutination, Diamed gel-cards, Bioclone anti-A ([1]; 0.05 mg/mL, Day 22, Cellstab) | Agglutination, Diamed gel-cards, Bioclone anti-A ([1]; 0.05 mg/mL, Day 29, Cellstab) | Agglutination, Diamed gel-cards, Bioclone anti-A ([1]; 0.05 mg/mL, Day 43, Alsevers) | Agglutination, Diamed gel-cards, Bioclone anti-A ([1]; 0.05 mg/mL, Day 43, Cellstab) | Agglutination, Diamed gel-cards, Bioclone anti-A ([1]; 0.05 mg/mL, Day 50, Alsevers) | Agglutination, Diamed gel-cards, Bioclone anti-A ([1]; 0.05 mg/mL, Day 50, Cellstab) | Agglutination, Diamed gel-cards, Bioclone anti-A ([1]; 0.05 mg/mL, Day 57, Alsevers) | Agglutination, Diamed gel-cards, Albaclone anti-A ([1]; 0.1 mg/mL, Day 2, Alsevers) | Agglutination, Diamed gel-cards, Bioclone anti-A ([1]; 0.1 mg/mL, Day 2, Alsevers) | Agglutination, Diamed gel-cards, Albaclone anti-A ([1]; 0.1 mg/mL, Day 2, Cellstab) | Agglutination, Diamed gel-cards, Bioclone anti-A ([1]; 0.1 mg/mL, Day 2, Cellstab) | Agglutination, Diamed gel-cards, Albaclone anti-A ([1]; 0.1 mg/mL, Day 8, Alsevers) | Agglutination, Diamed gel-cards, Bioclone anti-A ([1]; 0.1 mg/mL, Day 8, Alsevers) | Agglutination, Diamed gel-cards, Albaclone anti-A ([1]; 0.1 mg/mL, Day 8, Cellstab) | Agglutination, Diamed gel-cards, Bioclone anti-A ([1]; 0.1 mg/mL, Day 8, Cellstab) | Agglutination, Diamed gel-cards, Albaclone anti-A ([1]; 0.1 mg/mL, Day 15, Alsevers) | Agglutination, Diamed gel-cards, Bioclone anti-A ([1]; 0.1 mg/mL, Day 15, Alsevers) | Agglutination, Diamed gel-cards, Albaclone anti-A ([1]; 0.1 mg/mL, Day 15, Cellstab) | Agglutination, Diamed gel-cards, Bioclone anti-A ([1]; 0.1 mg/mL, Day 15, Cellstab) | Agglutination, Diamed gel-cards, Albaclone anti-A ([1]; 0.1 mg/mL, Day 22, Alsevers) | Agglutination, Diamed gel-cards, Bioclone anti-A ([1]; 0.1 mg/mL, Day 22, Alsevers) | Agglutination, Diamed gel-cards, Albaclone anti-A ([1]; 0.1 mg/mL, Day 22, Cellstab) | Agglutination, Diamed gel-cards, Bioclone anti-A ([1]; 0.1 mg/mL, Day 22, Cellstab) | Agglutination, Diamed gel-cards, Albaclone anti-A ([1]; 0.1 mg/mL, Day 29, Alsevers) | Agglutination, Diamed gel-cards, Bioclone anti-A ([1]; 0.1 mg/mL, Day 29, Alsevers) | Agglutination, Diamed gel-cards, Albaclone anti-A ([1]; 0.1 mg/mL, Day 29, Cellstab) | Agglutination, Diamed gel-cards, Bioclone anti-A ([1]; 0.1 mg/mL, Day 29, Cellstab) | Agglutination, Diamed gel-cards, Albaclone anti-A ([1]; 0.1 mg/mL, Day 43, Alsevers) | Agglutination, Diamed gel-cards, Bioclone anti-A ([1]; 0.1 mg/mL, Day 43, Alsevers) | Agglutination, Diamed gel-cards, Albaclone anti-A ([1]; 0.1 mg/mL, Day 43, Cellstab) | Agglutination, Diamed gel-cards, Bioclone anti-A ([1]; 0.1 mg/mL, Day 43, Cellstab) | Agglutination, Diamed gel-cards, Albaclone anti-A ([1]; 0.1 mg/mL, Day 50, Alsevers) | Agglutination, Diamed gel-cards, Bioclone anti-A ([1]; 0.1 mg/mL, Day 50, Alsevers) | Agglutination, Diamed gel-cards, Albaclone anti-A ([1]; 0.1 mg/mL, Day 50, Cellstab) | Agglutination, Diamed gel-cards, Bioclone anti-A ([1]; 0.1 mg/mL, Day 50, Cellstab) | Agglutination, Diamed gel-cards, Albaclone anti-A ([1]; 0.1 mg/mL, Day 57, Alsevers) | Agglutination, Diamed gel-cards, Bioclone anti-A ([1]; 0.1 mg/mL, Day 57, Alsevers) | Agglutination, Diamed gel-cards, Albaclone anti-A ([1]; 0.1 mg/mL, Day 57, Cellstab)
